Measured values reported in paper PMC4764856.
Results are given in words; binding and its absence hold for the method and conditions named. Binding seen in cells or lysates may run through a third protein. Binding calls can cover weak binding; strength is not graded here.

The chains behind the UniProt entries cited, without tags or fusion partners. Where a name states a change or a piece, a line headed by the entry shows the natural chain unless it says otherwise.
UniProt Q15796: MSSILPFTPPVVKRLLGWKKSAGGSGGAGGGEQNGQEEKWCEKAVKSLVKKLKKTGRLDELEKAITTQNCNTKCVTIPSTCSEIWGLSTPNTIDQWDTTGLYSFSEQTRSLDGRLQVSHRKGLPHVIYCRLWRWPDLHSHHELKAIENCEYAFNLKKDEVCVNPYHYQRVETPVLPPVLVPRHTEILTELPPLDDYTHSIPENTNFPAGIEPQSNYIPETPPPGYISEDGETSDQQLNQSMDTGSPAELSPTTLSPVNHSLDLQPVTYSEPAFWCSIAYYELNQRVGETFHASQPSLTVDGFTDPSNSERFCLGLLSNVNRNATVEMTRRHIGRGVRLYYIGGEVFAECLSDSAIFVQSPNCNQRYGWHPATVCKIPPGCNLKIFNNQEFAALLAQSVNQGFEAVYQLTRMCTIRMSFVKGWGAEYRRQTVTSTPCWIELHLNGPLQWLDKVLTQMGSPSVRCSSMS
UniProt Q13485: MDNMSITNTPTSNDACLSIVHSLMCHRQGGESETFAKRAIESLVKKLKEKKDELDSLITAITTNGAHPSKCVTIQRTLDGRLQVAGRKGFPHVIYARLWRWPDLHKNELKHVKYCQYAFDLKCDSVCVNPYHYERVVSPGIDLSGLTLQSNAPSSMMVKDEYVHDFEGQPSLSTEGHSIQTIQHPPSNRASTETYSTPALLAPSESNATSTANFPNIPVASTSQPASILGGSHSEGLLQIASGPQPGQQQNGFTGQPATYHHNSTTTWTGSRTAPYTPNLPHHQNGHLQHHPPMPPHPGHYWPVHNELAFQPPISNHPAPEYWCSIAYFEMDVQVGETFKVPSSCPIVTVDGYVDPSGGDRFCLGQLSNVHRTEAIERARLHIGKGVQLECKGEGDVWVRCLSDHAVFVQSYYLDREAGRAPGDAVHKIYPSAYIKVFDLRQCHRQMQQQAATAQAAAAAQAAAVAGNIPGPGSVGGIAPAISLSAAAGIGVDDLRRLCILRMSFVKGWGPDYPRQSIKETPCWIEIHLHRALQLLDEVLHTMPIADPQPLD

Biological target: GFP-Smad2 with TID domain deletion (UniProt Q15796)
Assay: co-IP; HEK 293 cells stably expressing the GFP fusion, with or without Activin for 1 hr; lysed in cold RIPA buffer; GFP antibody with Protein-G Sepharose beads, 4 °C overnight; blot with anti-Smad4

Substance: Smad4 (from UniProt Q13485 1-552)
- binding: binds
